Some of the results follow. Only hits are listed; about a third recur on repeated control peptides.
Tests used:
Experiment in all cases: PRISMA enrichment of interactor (LFQ) in peptide spot vs all other peptide spots (log2 fold change); higher = stronger / more specific binding of the interactor to the peptide
ACAA1, P09110 = molecular target: ACAA1, P09110
Description: (§1)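 PRISMA: 221 full-length sORF-encoded peptides (3-15 aa), plus SOS1/GLUT1 control peptides, were spot-synthesized on cellulose membranes in triplicate. Membranes were incubated with HEK293T lysate, and bound proteins were identified by LC-MS/MS with LFQ. Enrichment is the log2 fold change versus all other peptide spots; only significant interactors are listed (cutoff c=6, x0=2.8).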

Chains of the proteins cited; added tags and fusions are not shown.
AHSA1, O95433, UniProt O95433, whole entry: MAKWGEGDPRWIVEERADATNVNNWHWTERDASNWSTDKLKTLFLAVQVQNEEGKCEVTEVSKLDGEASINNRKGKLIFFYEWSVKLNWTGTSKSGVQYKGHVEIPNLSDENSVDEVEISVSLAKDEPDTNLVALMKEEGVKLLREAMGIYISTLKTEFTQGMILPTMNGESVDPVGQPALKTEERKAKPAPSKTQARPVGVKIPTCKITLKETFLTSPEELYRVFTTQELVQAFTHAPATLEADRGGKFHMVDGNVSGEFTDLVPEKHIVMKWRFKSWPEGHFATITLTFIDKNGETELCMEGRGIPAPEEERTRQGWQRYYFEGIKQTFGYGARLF
AP2A2, O94973, UniProt O94973, whole entry: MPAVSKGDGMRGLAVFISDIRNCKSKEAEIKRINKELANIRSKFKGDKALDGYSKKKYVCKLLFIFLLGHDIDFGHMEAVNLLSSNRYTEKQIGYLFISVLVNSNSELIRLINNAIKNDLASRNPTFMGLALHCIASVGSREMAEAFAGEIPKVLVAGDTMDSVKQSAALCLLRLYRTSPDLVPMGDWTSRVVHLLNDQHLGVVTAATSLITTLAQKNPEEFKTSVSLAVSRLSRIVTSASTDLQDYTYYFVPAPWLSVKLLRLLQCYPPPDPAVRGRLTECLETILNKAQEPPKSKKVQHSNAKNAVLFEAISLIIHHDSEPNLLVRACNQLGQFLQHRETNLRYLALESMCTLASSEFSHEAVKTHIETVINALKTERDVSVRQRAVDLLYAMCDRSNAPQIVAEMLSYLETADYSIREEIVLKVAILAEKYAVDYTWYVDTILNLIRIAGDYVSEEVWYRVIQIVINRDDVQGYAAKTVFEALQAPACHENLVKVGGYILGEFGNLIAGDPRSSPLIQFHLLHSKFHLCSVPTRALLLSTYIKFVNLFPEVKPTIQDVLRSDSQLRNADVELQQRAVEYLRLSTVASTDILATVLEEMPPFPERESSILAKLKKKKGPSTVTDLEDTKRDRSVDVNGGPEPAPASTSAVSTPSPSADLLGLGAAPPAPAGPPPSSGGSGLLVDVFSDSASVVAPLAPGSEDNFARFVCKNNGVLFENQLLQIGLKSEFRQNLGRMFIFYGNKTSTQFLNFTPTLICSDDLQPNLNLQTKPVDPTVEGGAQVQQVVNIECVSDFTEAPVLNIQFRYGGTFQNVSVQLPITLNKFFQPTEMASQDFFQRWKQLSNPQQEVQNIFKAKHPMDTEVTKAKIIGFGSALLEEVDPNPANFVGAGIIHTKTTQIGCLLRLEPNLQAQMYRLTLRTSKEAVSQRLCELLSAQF
ATXN2, Q99700, UniProt Q99700, whole entry: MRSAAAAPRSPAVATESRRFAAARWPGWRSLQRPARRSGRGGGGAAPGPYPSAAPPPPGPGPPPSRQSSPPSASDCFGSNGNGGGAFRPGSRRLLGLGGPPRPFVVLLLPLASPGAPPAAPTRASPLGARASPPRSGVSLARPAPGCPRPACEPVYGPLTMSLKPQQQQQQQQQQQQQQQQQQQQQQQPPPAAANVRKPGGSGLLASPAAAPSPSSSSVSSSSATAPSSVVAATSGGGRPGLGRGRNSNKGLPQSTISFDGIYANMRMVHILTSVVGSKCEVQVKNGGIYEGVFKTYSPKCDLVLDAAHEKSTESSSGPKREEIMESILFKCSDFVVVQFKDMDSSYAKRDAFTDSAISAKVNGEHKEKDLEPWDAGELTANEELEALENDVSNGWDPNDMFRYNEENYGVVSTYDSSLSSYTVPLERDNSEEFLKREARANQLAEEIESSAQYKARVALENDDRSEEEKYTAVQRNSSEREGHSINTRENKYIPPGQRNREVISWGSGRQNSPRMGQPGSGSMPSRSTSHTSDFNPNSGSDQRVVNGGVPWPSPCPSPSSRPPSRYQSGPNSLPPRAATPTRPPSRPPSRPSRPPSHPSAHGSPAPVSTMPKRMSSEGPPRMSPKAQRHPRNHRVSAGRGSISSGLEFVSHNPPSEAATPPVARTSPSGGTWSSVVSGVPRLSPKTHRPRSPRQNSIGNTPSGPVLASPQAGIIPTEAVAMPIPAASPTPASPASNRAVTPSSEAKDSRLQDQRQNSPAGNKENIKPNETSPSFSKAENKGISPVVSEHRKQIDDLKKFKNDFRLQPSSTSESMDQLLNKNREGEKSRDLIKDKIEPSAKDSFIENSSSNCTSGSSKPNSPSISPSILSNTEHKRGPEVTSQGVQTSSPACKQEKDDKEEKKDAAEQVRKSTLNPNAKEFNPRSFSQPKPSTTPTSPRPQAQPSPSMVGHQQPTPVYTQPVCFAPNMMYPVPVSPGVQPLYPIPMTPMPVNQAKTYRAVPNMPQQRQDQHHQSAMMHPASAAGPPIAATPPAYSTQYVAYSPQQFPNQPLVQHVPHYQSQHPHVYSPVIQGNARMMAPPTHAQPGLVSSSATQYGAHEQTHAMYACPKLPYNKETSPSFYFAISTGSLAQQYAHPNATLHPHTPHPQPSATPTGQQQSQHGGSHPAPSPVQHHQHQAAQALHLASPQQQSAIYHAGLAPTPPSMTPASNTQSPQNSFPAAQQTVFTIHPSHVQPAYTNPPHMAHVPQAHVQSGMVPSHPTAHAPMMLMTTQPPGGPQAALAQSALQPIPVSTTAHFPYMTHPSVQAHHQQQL
CHMP2B, Q9UQN3, UniProt Q9UQN3, whole entry: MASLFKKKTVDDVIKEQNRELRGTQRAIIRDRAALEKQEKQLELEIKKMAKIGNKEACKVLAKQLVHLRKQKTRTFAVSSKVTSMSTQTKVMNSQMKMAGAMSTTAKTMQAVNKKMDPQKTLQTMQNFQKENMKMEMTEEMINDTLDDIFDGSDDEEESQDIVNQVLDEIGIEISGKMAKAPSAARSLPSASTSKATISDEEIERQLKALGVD
CKS1B, P61024, UniProt P61024, whole entry: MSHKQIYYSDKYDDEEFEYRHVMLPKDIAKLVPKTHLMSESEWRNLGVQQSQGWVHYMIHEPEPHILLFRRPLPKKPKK
CKS2, P33552, UniProt P33552, whole entry: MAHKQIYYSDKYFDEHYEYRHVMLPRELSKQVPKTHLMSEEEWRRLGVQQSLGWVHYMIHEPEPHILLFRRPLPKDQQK
COX6B1, P14854, UniProt P14854, whole entry: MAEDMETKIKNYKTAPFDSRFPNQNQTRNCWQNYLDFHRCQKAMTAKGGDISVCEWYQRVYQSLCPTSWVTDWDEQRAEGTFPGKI

ACOT13, Q9NPJ3 = molecular target: ACOT13, Q9NPJ3
Description: as §1

ACOT7, O00154 = molecular target: ACOT7, O00154
Description: as §1

AHSA1, O95433 = molecular target: AHSA1, O95433
Description: as §1

ALKBH5, Q6P6C2 = molecular target: ALKBH5, Q6P6C2
Description: as §1

ALYREF, Q86V81 = molecular target: ALYREF, Q86V81
Description: as §1

ANXA7, P20073 = molecular target: ANXA7, P20073
Description: as §1

AP1B1, Q10567 = molecular target: AP1B1, Q10567
Description: as §1

AP2A1, O95782 = molecular target: AP2A1, O95782
Description: as §1

AP2A2, O94973 = molecular target: AP2A2, O94973
Description: as §1

AP2B1, P63010 = molecular target: AP2B1, P63010
Description: as §1

AP2M1, Q96CW1 = molecular target: AP2M1, Q96CW1
Description: as §1

AP2S1, P53680 = molecular target: AP2S1, P53680
Description: as §1

ARCN1, P48444 = molecular target: ARCN1, P48444
Description: as §1

ATXN2, Q99700 = molecular target: ATXN2, Q99700
Description: as §1

ATXN2L, Q8WWM7 = molecular target: ATXN2L, Q8WWM7
Description: as §1

BAIAP2, Q9UQB8 = molecular target: BAIAP2, Q9UQB8
Description: as §1

BOLA3, Q53S33 = molecular target: BOLA3, Q53S33
Description: as §1

C19orf53, Q9UNZ5 = molecular target: C19orf53, Q9UNZ5
Description: as §1

C1orf131, Q8NDD1 = molecular target: C1orf131, Q8NDD1
Description: as §1

C20orf27, Q9GZN8 = molecular target: C20orf27, Q9GZN8
Description: as §1

CC2D1A, Q6P1N0 = molecular target: CC2D1A, Q6P1N0
Description: as §1

CCDC137, Q6PK04 = molecular target: CCDC137, Q6PK04
Description: as §1

CCDC58, Q4VC31 = molecular target: CCDC58, Q4VC31
Description: as §1

CCDC59, Q9P031 = molecular target: CCDC59, Q9P031
Description: as §1

CDC73, Q6P1J9 = molecular target: CDC73, Q6P1J9
Description: as §1

CGGBP1, Q9UFW8 = molecular target: CGGBP1, Q9UFW8
Description: as §1

CHCHD7, Q9BUK0 = molecular target: CHCHD7, Q9BUK0
Description: as §1

CHMP2A, O43633 = molecular target: CHMP2A, O43633
Description: as §1

CHMP2B, Q9UQN3 = molecular target: CHMP2B, Q9UQN3
Description: as §1

CHTOP, Q9Y3Y2 = molecular target: CHTOP, Q9Y3Y2
Description: as §1

CKS1B, P61024 = molecular target: CKS1B, P61024
Description: as §1

CKS2, P33552 = molecular target: CKS2, P33552
Description: as §1

COA7, Q96BR5 = molecular target: COA7, Q96BR5
Description: as §1

COX6B1, P14854 = molecular target: COX6B1, P14854
Description: as §1

CPSF7, Q8N684 = molecular target: CPSF7, Q8N684
Description: as §1

CSNK1A1, P48729 = molecular target: CSNK1A1, P48729
Description: as §1

CSNK1E, P49674 = molecular target: CSNK1E, P49674
Description: as §1

CSRP2, Q16527 = molecular target: CSRP2, Q16527
Description: as §1

CSTF3, Q12996 = molecular target: CSTF3, Q12996
Description: as §1

CXorf56, Q9H5V9 = molecular target: CXorf56, Q9H5V9
Description: as §1

B1: SH3D19 (peptide)
chain: MMFWTEF
- PRISMA enrichment of interactor (log2) (ACAA1, P09110): 3.94
- PRISMA enrichment of interactor (log2) (ACOT13, Q9NPJ3): 5.38
- PRISMA enrichment of interactor (log2) (ACOT7, O00154): 5.17
- PRISMA enrichment of interactor (log2) (AHSA1, O95433): 5.11
- PRISMA enrichment of interactor (log2) (ALKBH5, Q6P6C2): 4.87
- PRISMA enrichment of interactor (log2) (ALYREF, Q86V81): 4.97
- PRISMA enrichment of interactor (log2) (ANXA7, P20073): 4.3
- PRISMA enrichment of interactor (log2) (AP1B1, Q10567): 5.74
- PRISMA enrichment of interactor (log2) (AP2A1, O95782): 8.94
- PRISMA enrichment of interactor (log2) (AP2A2, O94973): 8.43
- PRISMA enrichment of interactor (log2) (AP2B1, P63010): 8.46
- PRISMA enrichment of interactor (log2) (AP2M1, Q96CW1): 7.65
- PRISMA enrichment of interactor (log2) (AP2S1, P53680): 5.87
- PRISMA enrichment of interactor (log2) (ARCN1, P48444): 5.75
- PRISMA enrichment of interactor (log2) (ATXN2, Q99700): 5.05
- PRISMA enrichment of interactor (log2) (ATXN2L, Q8WWM7): 5.79
- PRISMA enrichment of interactor (log2) (BAIAP2, Q9UQB8): 5.31
- PRISMA enrichment of interactor (log2) (BOLA3, Q53S33): 4.96
- PRISMA enrichment of interactor (log2) (C19orf53, Q9UNZ5): 6.54
- PRISMA enrichment of interactor (log2) (C1orf131, Q8NDD1): 4.29
- PRISMA enrichment of interactor (log2) (C20orf27, Q9GZN8): 3.74
- PRISMA enrichment of interactor (log2) (CC2D1A, Q6P1N0): 7.58
- PRISMA enrichment of interactor (log2) (CCDC137, Q6PK04): 5.55
- PRISMA enrichment of interactor (log2) (CCDC58, Q4VC31): 4.96
- PRISMA enrichment of interactor (log2) (CCDC59, Q9P031): 4.57
- PRISMA enrichment of interactor (log2) (CDC73, Q6P1J9): 5.36
- PRISMA enrichment of interactor (log2) (CGGBP1, Q9UFW8): 4.62
- PRISMA enrichment of interactor (log2) (CHCHD7, Q9BUK0): 4.27
- PRISMA enrichment of interactor (log2) (CHMP2A, O43633): 7.65
- PRISMA enrichment of interactor (log2) (CHMP2B, Q9UQN3): 6.28
- PRISMA enrichment of interactor (log2) (CHTOP, Q9Y3Y2): 5.31
- PRISMA enrichment of interactor (log2) (CKS1B, P61024): 4.86
- PRISMA enrichment of interactor (log2) (CKS2, P33552): 5.31
- PRISMA enrichment of interactor (log2) (COA7, Q96BR5): 4.69
- PRISMA enrichment of interactor (log2) (COX6B1, P14854): 4.93
- PRISMA enrichment of interactor (log2) (CPSF7, Q8N684): 6.14
- PRISMA enrichment of interactor (log2) (CSNK1A1, P48729): 6.37
- PRISMA enrichment of interactor (log2) (CSNK1E, P49674): 7.21
- PRISMA enrichment of interactor (log2) (CSRP2, Q16527): 7.51
- PRISMA enrichment of interactor (log2) (CSTF3, Q12996): 3.87
- PRISMA enrichment of interactor (log2) (CXorf56, Q9H5V9): 6.97

— the supplement of paper PMC10032668
